These results are taken from patent US8796227B2, “Peptides for inhibiting chemokine binding to chemokine receptors” (Biokine Therapeutics Ltd., priority 2002, dated 2014).

The nature of this series: Immunity of the peptides: injection into mice, serum antibody binding to peptide (Elisa O.D.). It is filed as in vivo. Conditions: sera of mice after injection of the peptide; pre-immune serum showed no binding (FIG. 5). The method, then:
The preimmune serum of the same mice used as a control. “Blank” is the O.D. level of antibody binding to the plastic (of the Elisa experiment), with no addition of peptides.
Further examination of BKT-P3 and BKT-P2 (both belonging to family 1) for the immunity of these peptides was performed, by injecting those peptides to mice. The result of the experiment is graphically illustrated in FIG. 5.

With SIFAHQTPTHKN [BKT-P3], the “Level of immunity (O.D.) of immune sera against the peptide” value is “high O.D. levels”.

With SIPSHSIHSAKA [BKT-P2], the “Level of immunity (O.D.) of immune sera against the peptide” value is listed as “high O.D. levels”.
